Results are given in words; binding and its absence hold for the method and conditions named. Some entries that bind do so weakly or less than the wild type. Sequences can lack the tags named with a protein.
Experiments:
[1] = biological target: T1, GAL4-BD fusion of the glutamic acid (GA)-rich region of Stra8 (Stra8^GA) (mouse) (UniProt P70278); experiment: two-hybrid; direct-Y2H: purified prey clone co-transformed with bait construct or empty pGBKT7 into AH109; SD/-Leu/-Trp, then SD/-Leu/-Trp/-His/-Ade and X-alpha-Gal plates
T1 sequence: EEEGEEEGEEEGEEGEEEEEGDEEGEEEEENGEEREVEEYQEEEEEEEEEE

[2] = biological target: T1, GAL4-BD fusion of the glutamic acid (GA)-rich region of Stra8 (Stra8^GA) (mouse); experiment: two-hybrid; GAL4-based library screen: mouse maGSC cDNA library (pGADT7-Rec, AH109) mated with Y187 carrying pGBKT7-Stra8^GA; selection on SD/-Leu/-Trp/-His/-Ade and X-alpha-Gal; auto-activating clones excluded by direct-Y2H

B1: AT-rich interactive domain 4B (Arid4B), C-terminal region prey clone (domain or fragment, UniProt A2CG63-1 1119-1314)
chain: KRVKDTQGVGSSSKKQKRSHKATVVNNKKKGKGTNSSDSEELSAGESVTKTQTIKSVPTGMKTHNSKSPARVQSPGKGGRNGDKDPDLKEPSNRLPKVYKWSFQTSDLENMTSAERISILQEKLQEIRKHYLSLKSEVASIDRRRKRLKKKERESAATSSSSSSPSSSSITAAVMLTLAEPSMSSASQNGMSVECR
- binding [1]: binds
- binding [2]: binds

— PMC3636440
